Results reported in doi:10.1101/855361.
No constants are given. Whether binding was seen depends on the method and setting. In cells and extracts the contact can be indirect. A yes stands for co-enrichment or nearness to the bait. Other partners may have been found. Sequences can lack the tags named with a protein.

Protein sequences, listed by entry. Tags and fused reporters are not part of them.
UniProt Q9UHD2: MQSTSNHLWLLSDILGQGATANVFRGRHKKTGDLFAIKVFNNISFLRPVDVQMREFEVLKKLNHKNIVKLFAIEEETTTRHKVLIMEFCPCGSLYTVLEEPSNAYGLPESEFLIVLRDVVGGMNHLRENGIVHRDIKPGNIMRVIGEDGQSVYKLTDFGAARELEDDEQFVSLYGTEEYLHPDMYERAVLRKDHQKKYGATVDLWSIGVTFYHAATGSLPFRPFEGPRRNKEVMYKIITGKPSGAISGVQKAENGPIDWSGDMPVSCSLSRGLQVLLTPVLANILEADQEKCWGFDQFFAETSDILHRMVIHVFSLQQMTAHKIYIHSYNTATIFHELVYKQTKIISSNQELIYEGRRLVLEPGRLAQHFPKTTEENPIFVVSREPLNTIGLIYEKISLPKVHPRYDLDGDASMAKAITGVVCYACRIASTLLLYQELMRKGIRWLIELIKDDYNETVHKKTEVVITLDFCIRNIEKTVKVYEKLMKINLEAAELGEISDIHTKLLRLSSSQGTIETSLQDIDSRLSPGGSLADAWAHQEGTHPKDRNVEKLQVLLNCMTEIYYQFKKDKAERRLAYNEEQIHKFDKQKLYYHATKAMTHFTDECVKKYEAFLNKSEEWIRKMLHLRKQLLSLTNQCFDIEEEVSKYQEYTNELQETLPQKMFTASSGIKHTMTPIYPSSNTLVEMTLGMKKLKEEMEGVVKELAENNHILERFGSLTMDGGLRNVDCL

Biological target: T1, HA-IKKε (IκB kinase ε, wild type) (human) (UniProt Q14164)
T1 sequence: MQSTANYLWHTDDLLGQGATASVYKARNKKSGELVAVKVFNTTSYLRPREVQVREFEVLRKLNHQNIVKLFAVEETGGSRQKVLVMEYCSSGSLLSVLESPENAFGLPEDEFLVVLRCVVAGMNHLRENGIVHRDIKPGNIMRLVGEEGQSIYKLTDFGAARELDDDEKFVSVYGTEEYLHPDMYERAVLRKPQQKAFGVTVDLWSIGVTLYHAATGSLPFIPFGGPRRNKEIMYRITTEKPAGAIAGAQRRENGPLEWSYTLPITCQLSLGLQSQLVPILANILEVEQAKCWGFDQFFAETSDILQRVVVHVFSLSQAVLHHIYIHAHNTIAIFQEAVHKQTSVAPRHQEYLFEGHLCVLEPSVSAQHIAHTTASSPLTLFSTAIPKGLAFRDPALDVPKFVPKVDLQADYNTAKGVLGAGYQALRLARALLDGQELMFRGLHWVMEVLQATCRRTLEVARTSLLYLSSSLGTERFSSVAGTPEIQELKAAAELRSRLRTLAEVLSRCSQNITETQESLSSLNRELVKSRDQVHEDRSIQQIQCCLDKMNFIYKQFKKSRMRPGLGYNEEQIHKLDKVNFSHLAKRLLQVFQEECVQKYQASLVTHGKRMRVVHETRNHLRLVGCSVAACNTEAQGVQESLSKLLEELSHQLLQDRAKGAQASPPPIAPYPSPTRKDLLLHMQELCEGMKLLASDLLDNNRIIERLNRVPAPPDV
Experiment: affinity purification with mass spectrometry

- binding: binds
Substance: TANK binding kinase 1 (TBK1) (from UniProt Q9UHD2 1-729) (enzyme)
